The assay deals with HIF1α^PA, prolyl hydroxylation-resistant mutant of HIF1α (UniProt Q16665). The assay is described as follows: co-IP; co-IP/IB from lysates of HEK293T cells transfected as indicated (antibody with Protein A/G agarose overnight, then immunoblot). In general terms: Immunoblotting shows a protein as a band on a membrane.

Amino acid sequences for entries named in this document (tags omitted). A change or cut given only in a name is not applied to a line headed by its entry.
UniProt Q16665: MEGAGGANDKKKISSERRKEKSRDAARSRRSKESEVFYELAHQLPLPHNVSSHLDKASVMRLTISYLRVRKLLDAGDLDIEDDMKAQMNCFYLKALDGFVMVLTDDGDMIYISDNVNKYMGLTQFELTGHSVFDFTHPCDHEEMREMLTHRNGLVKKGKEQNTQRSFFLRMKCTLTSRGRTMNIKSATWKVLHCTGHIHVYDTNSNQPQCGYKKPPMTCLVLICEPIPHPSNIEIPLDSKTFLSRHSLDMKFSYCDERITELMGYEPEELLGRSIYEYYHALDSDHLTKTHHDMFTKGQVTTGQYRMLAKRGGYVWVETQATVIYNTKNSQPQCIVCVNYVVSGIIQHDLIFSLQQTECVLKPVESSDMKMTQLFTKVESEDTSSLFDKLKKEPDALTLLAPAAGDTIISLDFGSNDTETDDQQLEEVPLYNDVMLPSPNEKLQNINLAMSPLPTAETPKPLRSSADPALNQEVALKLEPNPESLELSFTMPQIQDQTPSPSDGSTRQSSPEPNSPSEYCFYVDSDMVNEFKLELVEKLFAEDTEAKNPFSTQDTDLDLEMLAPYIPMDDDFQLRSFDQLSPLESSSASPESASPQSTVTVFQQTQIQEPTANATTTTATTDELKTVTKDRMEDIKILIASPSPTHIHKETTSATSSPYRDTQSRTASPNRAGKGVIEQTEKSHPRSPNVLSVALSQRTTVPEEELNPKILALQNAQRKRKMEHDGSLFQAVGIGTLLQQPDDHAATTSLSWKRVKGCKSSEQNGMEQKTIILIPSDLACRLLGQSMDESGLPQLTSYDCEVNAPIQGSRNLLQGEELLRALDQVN
UniProt Q96EP0: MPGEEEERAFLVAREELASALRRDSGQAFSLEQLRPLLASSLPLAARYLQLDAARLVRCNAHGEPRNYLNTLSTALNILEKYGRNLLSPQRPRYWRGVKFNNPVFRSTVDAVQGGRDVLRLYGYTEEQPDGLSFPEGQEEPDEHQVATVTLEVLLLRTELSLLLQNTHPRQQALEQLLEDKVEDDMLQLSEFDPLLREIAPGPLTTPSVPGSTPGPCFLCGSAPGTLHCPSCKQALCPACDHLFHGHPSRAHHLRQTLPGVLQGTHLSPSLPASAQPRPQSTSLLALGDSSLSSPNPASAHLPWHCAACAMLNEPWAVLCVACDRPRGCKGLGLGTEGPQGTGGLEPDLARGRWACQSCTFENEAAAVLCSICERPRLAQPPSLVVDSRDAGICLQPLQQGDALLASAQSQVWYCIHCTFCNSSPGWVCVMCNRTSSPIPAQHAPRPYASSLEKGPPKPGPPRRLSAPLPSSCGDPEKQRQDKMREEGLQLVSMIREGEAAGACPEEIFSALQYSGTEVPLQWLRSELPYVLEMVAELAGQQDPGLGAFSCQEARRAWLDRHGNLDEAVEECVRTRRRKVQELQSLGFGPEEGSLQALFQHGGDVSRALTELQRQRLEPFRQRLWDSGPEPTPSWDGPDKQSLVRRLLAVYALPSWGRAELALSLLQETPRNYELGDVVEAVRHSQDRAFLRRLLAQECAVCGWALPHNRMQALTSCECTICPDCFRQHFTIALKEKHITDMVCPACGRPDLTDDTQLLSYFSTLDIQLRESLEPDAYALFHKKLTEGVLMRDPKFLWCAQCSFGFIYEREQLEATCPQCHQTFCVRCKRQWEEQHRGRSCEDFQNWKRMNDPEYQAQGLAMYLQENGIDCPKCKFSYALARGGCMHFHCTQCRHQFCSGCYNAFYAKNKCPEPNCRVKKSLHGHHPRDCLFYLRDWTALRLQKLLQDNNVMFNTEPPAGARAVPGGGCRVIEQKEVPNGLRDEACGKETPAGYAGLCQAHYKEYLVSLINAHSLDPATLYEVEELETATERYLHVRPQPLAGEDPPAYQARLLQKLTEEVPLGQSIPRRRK

Results are given in words; binding and its absence hold for the method and conditions named. Binding seen in cells or lysates may run through a third protein. Binding can be weak; no strength is given.

The values that follow come from article PMC10810860.

As to “HOIP (HOIL-1L interacting protein), full-length, expressed by transfection (from UniProt Q96EP0 1-1072) (enzyme)”, the binding result was “binds”.
